Measured values: patent US20160272968A1
Results are given in words; binding and its absence hold for the method and conditions named. Binding seen in cells or lysates may run through a third protein. Some results given as binding are weak or reduced against the parent protein; the word gives no strength.

Protein sequences, listed by entry. Tags and fused reporters are not part of them. Residues count along the entry.
UniProt P61810, residues 2-307: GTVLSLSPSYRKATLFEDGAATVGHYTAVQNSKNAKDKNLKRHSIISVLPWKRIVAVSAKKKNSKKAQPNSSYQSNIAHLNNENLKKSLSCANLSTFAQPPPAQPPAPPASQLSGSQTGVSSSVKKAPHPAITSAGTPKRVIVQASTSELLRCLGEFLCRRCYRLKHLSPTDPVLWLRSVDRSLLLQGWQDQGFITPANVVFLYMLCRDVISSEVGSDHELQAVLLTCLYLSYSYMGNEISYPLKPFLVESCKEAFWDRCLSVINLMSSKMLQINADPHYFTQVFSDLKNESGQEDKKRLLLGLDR

Experiments:
[1] = target: Cdk5 activator subunit p35/p25 (rat) (UniProt P61810); test: co-immunoprecipitation from neuron lysates, Western blot (FIG. 7)
[2] = target: Cdk5 activator subunit p35/p25 (rat) (UniProt P61810); test: co-immunoprecipitation from neuron lysates with anti-p35/25 antibody, Western blot for Cdk5
[3] = target: Cdk5 activator subunit p35/p25 (rat) (UniProt P61810); test: co-immunoprecipitation from primary cortical neuron lysates with anti-p35/p25 antibody, Western blot for Cdk5

Measured: binding

cyclin dependent kinase 5 (Cdk5) (from UniProt Q03114 1-292) (enzyme)
binds: all assays above
